According to patent US20180028693A1:
No constants are given. Whether binding was seen depends on the method and setting. Some entries that bind do so weakly or less than the wild type. Tags and fused reporters may be left off the sequences shown.

The chains behind the UniProt entries cited, without tags or fusion partners. Where a name states a change or a piece, a line headed by the entry shows the natural chain unless it says otherwise.
UniProt P06756: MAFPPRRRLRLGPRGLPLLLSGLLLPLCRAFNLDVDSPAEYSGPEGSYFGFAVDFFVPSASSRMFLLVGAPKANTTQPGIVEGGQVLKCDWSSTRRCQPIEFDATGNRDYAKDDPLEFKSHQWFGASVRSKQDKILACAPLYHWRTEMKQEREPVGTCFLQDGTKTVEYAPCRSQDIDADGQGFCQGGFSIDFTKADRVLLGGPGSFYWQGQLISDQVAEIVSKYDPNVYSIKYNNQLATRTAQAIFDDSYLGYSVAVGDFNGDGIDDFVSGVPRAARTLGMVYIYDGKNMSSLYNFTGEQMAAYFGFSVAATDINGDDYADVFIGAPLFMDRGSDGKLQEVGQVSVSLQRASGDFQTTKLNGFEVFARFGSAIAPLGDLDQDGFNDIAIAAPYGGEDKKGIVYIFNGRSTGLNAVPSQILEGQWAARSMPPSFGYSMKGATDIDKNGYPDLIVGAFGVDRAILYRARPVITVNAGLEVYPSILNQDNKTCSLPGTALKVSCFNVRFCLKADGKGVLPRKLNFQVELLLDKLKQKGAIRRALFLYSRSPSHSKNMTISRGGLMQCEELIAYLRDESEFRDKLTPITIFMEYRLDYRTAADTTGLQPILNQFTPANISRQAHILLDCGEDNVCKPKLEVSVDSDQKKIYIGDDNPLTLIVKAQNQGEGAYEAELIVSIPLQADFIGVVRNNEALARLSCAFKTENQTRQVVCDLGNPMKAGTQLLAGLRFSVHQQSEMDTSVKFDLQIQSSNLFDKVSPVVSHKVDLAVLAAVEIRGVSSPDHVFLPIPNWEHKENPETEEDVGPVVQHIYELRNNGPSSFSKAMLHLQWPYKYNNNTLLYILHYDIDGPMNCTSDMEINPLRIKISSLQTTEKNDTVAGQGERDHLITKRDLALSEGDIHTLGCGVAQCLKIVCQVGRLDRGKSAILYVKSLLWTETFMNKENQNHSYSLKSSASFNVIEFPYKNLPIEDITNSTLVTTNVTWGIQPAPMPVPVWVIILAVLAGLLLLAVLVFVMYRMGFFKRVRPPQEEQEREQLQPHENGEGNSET

Target: integrin αvβ3 on U87 glioblastoma cells (UniProt P06756)
Test: confocal fluorescence of Alexa Fluor-488 labeled GVs after 24 hr on U87 cells

binding: binds
B1: GvpCWT-RGD (GvpC comprising a His-tag in the N-terminal region and an RGD tag fused to the C-terminus) (protein)
chain: MGHHHHHHSGISLMAKIRQEHQSIAEKVAELSLETREFLSVTTAKRQEQAEKQAQELQAFYKDLQETSQQFLSETAQARIAQAEKQAQELLAFHKELQETSQQFLSATAQARIAQAEKQAQELLAFYQEVRETSQQFLSATAQARIAQAEKQAQELLAFHKELQETSQQFLSATADARTAQAKEQKESLLKFRQDLFVSIFGSGCDCRGDCFC
